# PubChem BioAssay AID1259285 | Sanger Institute | 2017
# Assay: 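Kinase knock-downs that reduce colorectal cancer cell viability or act with drugs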 (primary screen)
# Cell system: human HCC56 colorectal cancer cells
# Reagents: siRNA pool against human genes
# Treatment: DMSO vehicle, or anchor drug BYL719 at 1 µM, cetuximab at 5 µg/ml, or trametinib at 10 nM
# Measured: 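Replicate-averaged viability relative to non-targeting siRNA, expressed as a robust z-score from controls, plus a synergy score for each of three anchor drugs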
# Scale: viability robust z-score, no drug: higher = more viable cells, weaker knock-down effect; viability vs non-targeting pool, no drug: higher = more viable cells; synergy score with BYL719: higher = stronger combined killing with BYL719
# Active means: 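a knock-down counts as essential if its viability z-score without drug is under -3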
# Meaning of the calls: active = essential without drug; inactive = no change without drug
# Shown is an unselected part of 794 reagents tested. 20 of them (2.5%) count as active. 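Calls rest on the drug-free arm alone and ignore synergy scores; viability ratios seem to be capped at 1.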 Not all columns of the deposit are shown. Not stated in the record: the amount of reagent, the time to read-out.
Gene,"viability robust z-score, no drug","viability vs non-targeting pool, no drug",synergy score with BYL719,activity call
PHKA2 (phosphorylase kinase regulatory subunit alpha 2),-0.578,0.911,-0.127,inactive
PDK4 (pyruvate dehydrogenase kinase 4),0.458,1,-0.0272,inactive
RET (ret proto-oncogene),0.458,1,-0.162,inactive
CKB (creatine kinase B),0.458,1,-0.162,inactive
EPHA10 (EPH receptor A10),0.458,1,0.117,inactive
STRADA (STE20 related adaptor alpha),0.458,1,-0.0237,inactive
MAP3K5 (mitogen-activated protein kinase kinase kinase 5),0.458,1,-0.0506,inactive
MAP2K7 (mitogen-activated protein kinase kinase 7),-1.14,0.863,0.0787,inactive
MAPK14 (mitogen-activated protein kinase 14),0.458,1,0.0625,inactive
"PFKL (phosphofructokinase, liver type)",0.458,1,-0.162,inactive
CDK15 (cyclin dependent kinase 15),0.458,1,-0.162,inactive
TSSK2 (testis specific serine kinase 2),-0.538,0.914,0.0862,inactive
PI4K2B (phosphatidylinositol 4-kinase type 2 beta),0.253,0.982,-0.104,inactive
PTPRU (protein tyrosine phosphatase receptor type U),0.458,1,-0.156,inactive
PAK2 (p21 (RAC1) activated kinase 2),0.458,1,-0.162,inactive
NEK6 (NIMA related kinase 6),0.458,1,-0.0512,inactive
BRD4 (bromodomain containing 4),0.458,1,-0.0473,inactive
MINK1 (misshapen like kinase 1),-0.192,0.944,0.0157,inactive
PDPK1 (3-phosphoinositide dependent protein kinase 1),0.13,0.972,0.0801,inactive
ELF3 (E74 like ETS transcription factor 3),0.458,1,-0.0381,inactive
CNOT1 (CCR4-NOT transcription complex subunit 1),0.458,1,-0.104,inactive
TBK1 (TANK binding kinase 1),0.458,1,0.0141,inactive
CDK10 (cyclin dependent kinase 10),-0.117,0.951,-0.076,inactive
MAP3K19 (mitogen-activated protein kinase kinase kinase 19),-1.49,0.833,-0.0177,inactive
PAPSS1 (3'-phosphoadenosine 5'-phosphosulfate synthase 1),0.458,1,-0.162,inactive
CLK4 (CDC like kinase 4),0.458,1,-0.105,inactive
GALK2 (galactokinase 2),0.458,1,-0.0392,inactive
ASPM (assembly factor for spindle microtubules),0.458,1,-0.132,inactive
MAST2 (microtubule associated serine/threonine kinase 2),0.458,1,0.0839,inactive
CDC42BPG (CDC42 binding protein kinase gamma),0.113,0.97,0.0397,inactive
GRK6 (G protein-coupled receptor kinase 6),0.458,1,0.0613,inactive
PRPS2 (phosphoribosyl pyrophosphate synthetase 2),0.458,1,0.0484,inactive
CDK18 (cyclin dependent kinase 18),0.458,1,-0.101,inactive
PIP4K2C (phosphatidylinositol-5-phosphate 4-kinase type 2 gamma),0.458,1,0.0197,inactive

2 entries from above, reformatted.
CDK15 (cyclin dependent kinase 15): viability robust z-score, no drug = 0.458; viability vs non-targeting pool, no drug = 1; synergy score with BYL719 = -0.162; activity call = inactive
TSSK2 (testis specific serine kinase 2): viability robust z-score, no drug = -0.538; viability vs non-targeting pool, no drug = 0.914; synergy score with BYL719 = 0.0862; activity call = inactive
